In patent US20230160018A1, “CRYBETAB2 PREDICTS POOR BREAST CANCER OUTCOME AND SENSITIZES TUMORS TO NUCLEOLIN AND CDK INHIBITION” (The Johns Hopkins University, priority 2020, published 2023):
Entries after “also recorded” stand apart in the source; their conditions may differ. At least one structure is not confirmed: it was looked up by name or label, or the drawing left a doubt.

What was measured:
[1] = test system: MCF10AT1-vector and -CRYβB2 cells; assay: Cell proliferation assay (crystal violet); format: cell-based, human; conditions: HHT 10 nM, 10 days; MCF10AT1-CRYβB2 in comparison to vector control cells
[2] = test system: MCF10AT1-CRYβB2 and vector control cells; assay: SUnSET measurement of protein synthesis; format: cell-based, human; conditions: HHT 50 nM, 48 h; MCF10AT1-CRYβB2 in comparison to vector control cells
MCF10AT1-CRYβB2 tumors = assay: MCF10AT1-CRYβB2 xenograft tumor growth in NSG mice; format: in vivo; conditions: 5 days/week; for tumor growth (tumor volume): HHT 1 mg/kg i.p., 5 weeks
MCF10AT1-vector tumors = assay: MCF10AT1-vector (CRYβB2-lacking) xenograft tumor growth in NSG mice; format: in vivo; conditions: palbociclib 50 mg/kg oral, 5 days/week, 2 weeks; tumors lack CRYβB2 expression
TNBC and ER+ cell lines = assay: Correlation of reported palbociclib IC50 with CRYβB2 protein expression (Western blot); format: cell-based, human; conditions: IC50 taken from literature (ref. 21)

SMILES	decrease of cell proliferation [1]	decrease of protein synthesis [2]	tumor growth (tumor volume) (MCF10AT1-CRYβB2 tumors)	tumor growth (tumor volume) (MCF10AT1-CRYβB2 tumors; listed as HHT)	tumor size (MCF10AT1-vector tumors)	tumor growth (tumor volume and weight) (MCF10AT1-CRYβB2 tumors; palbociclib 50 mg/kg oral, 2 weeks)	correlation of CRYβB2 protein expression with reported palbociclib IC50 (TNBC and ER+ cell lines)
COC(=O)C[C@](O)(CCCC(C)(C)O)C(=O)O[C@@H]1C(OC)=C[C@]23CCCN2CCc2cc4c(cc2[C@H]13)OCO4 [homoharringtonine]	more effective	more effective	sensitive	significant inhibition of growth	–	–	–
CC(=O)c1c(C)c2cnc(Nc3ccc(N4CCNCC4)cn3)nc2n(C2CCCC2)c1=O [palbociclib]	–	–	–	–	ineffective	significantly decreased; also recorded: sensitive	inversely correlated
